Data as given in the supplement of paper PMC12889115.
The other results are listed elsewhere or left out. Values are raw readings; no control value is given beside them.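 Primary screen: polymyxin B was added at a level permeabilizing Salmonella outer membranes while sparing inner membranes. DMSO wells, both with and without polymyxin B, established maximum growth. Plate-to-plate variation meant each plate was ranked on its own, and the lowest-OD600 compounds were selected as hits.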

Test system: Salmonella enterica serovar Typhimurium SL1344
Experiment: bacterial growth OD600 after 18 h with compound and polymyxin B; higher = more bacterial growth (less inhibition)
Conditions: 50 µM, Mueller-Hinton broth

## O=C(c1ccsc1)N1CCOc2ccc(C(O)C(c3ccccc3)c3ccccc3)cc2C1 (stereo unspecified)
Polymyxin B 0.75 µg/mL
  bacterial growth OD600: 0.602

## Cc1ccsc1C(=O)N1CCc2onc(-c3ccc(Cl)cc3)c2C1
Polymyxin B 0.75 µg/mL
  bacterial growth OD600: 0.452

## CCOC(=O)C1(Cc2ccc(F)cc2F)CCCN(C(=O)c2ccc(OC)nc2OC)C1 (stereo unspecified)
Polymyxin B 1 µg/mL
  bacterial growth OD600: 0.931

## O=C(Nc1cccc(N2CCC(NCC(c3ccccc3)c3ccccc3)CC2)c1)c1ccncc1
Polymyxin B 0.75 µg/mL
  bacterial growth OD600: 0.762

## CCC1CN(CCNC(=O)CCCc2cccs2)Cc2cc(OC)ccc2O1 (stereo unspecified)
Polymyxin B 0.75 µg/mL
  bacterial growth OD600: 0.755

## Cc1cc(C(=O)N(Cc2ccncc2)Cc2cccc(OCCc3ccc(F)cc3)c2)n(C)n1
Polymyxin B 0.75 µg/mL
  bacterial growth OD600: 0

## O=C(NC1CCCc2ccccc21)c1ccc(OC2CCN(C(=O)C3CC3)CC2)cc1 (stereo unspecified)
Polymyxin B 1 µg/mL
  bacterial growth OD600: 1.19

## CCc1ccc(CN2CCC(Oc3ccc(C(=O)NCCOC)cc3Cl)CC2)o1
Polymyxin B 1 µg/mL
  bacterial growth OD600: 0.823

## COc1cc(C(=O)N(C)Cc2ccc(C)cc2)ccc1OC1CCN(C(C)=O)CC1
Polymyxin B 1 µg/mL
  bacterial growth OD600: 0.847

## O=C(Cc1ccc2c(c1)OCO2)N1CCOc2ccc(CN3CCN(c4ccccc4)CC3)cc2C1
Polymyxin B 0.75 µg/mL
  bacterial growth OD600: 0.743

## Cc1cc(C)c(C(=O)N2CCC3(CCCN(Cc4ccccc4F)C3)C2)c(=O)[nH]1 (stereo unspecified)
Polymyxin B 1 µg/mL
  bacterial growth OD600: 0.899

## COc1cccc(-c2cccc(NC(=O)C3CCN(CCC(C)C)CC3)c2)c1
Polymyxin B 1 µg/mL
  bacterial growth OD600: 0.864

## O=C(C1CC1)N1CCC2(CCCN(Cc3ccc(F)cc3)C2=O)C1 (stereo unspecified)
Polymyxin B 1 µg/mL
  bacterial growth OD600: 1.04

## CN(Cc1n[nH]c2c1CCCC2)C(=O)COc1ccc(N(C)Cc2ccc(F)cc2)nn1
Polymyxin B 0.75 µg/mL
  bacterial growth OD600: 0.916

## Cc1cccc(CN2CCCC3(CCN(C(=O)c4ccc(C)nc4)C3)C2=O)c1 (stereo unspecified)
Polymyxin B 1 µg/mL
  bacterial growth OD600: 0.954

## CCn1ncc(CN2C[C@H]3OC(=O)N(Cc4ccccn4)[C@H]3C2)c1C
Polymyxin B 0.75 µg/mL
  bacterial growth OD600: 0.812

## COc1ccc(C(=O)NC2CC2)c(OC2CCN(Cc3cnn(C)c3)CC2)c1
Polymyxin B 1 µg/mL
  bacterial growth OD600: 0.877

## COc1cc(CN2CCN(Cc3ccc(C)cc3)CC2CCO)cc(OC)c1 (stereo unspecified)
Polymyxin B 1 µg/mL
  bacterial growth OD600: 0.857

## CN1CCCc2cc(CN3CCC4(CC3)CC4C(=O)NCc3ccco3)ccc21 (stereo unspecified)
Polymyxin B 0.75 µg/mL
  bacterial growth OD600: 1.03

## O=C(CC(c1ccccc1)c1ccccc1Cl)N1CCOCC1 (stereo unspecified)
Polymyxin B 1 µg/mL
  bacterial growth OD600: 0.698

## COCCN(Cc1cccnc1)C(Cc1ccccc1)C1CCN(Cc2ccc(F)c(OC)c2)CC1 (stereo unspecified)
Polymyxin B 0.75 µg/mL
  bacterial growth OD600: 0.806

## CCCn1c(C)c(CC(=O)NCC2COCCO2)c2c1CC(C)(C)CC2=O (stereo unspecified)
Polymyxin B 1 µg/mL
  bacterial growth OD600: 0.829

## C#Cc1cccc(C(=O)NCC2CC(Cc3ccc(F)cc3)=NO2)c1 (stereo unspecified)
Polymyxin B 0.75 µg/mL
  bacterial growth OD600: 0.951

## CCC(C)CC(=O)N1CCc2c(C(=O)NCc3ccc4c(c3)OCO4)c(OC)cc(=O)n2CC1 (stereo unspecified)
Polymyxin B 0.75 µg/mL
  bacterial growth OD600: 0.849

## COC(=O)CN(C)C(=O)C1CCC(=O)N(Cc2cccc(C(F)(F)F)c2)C1 (stereo unspecified)
Polymyxin B 1 µg/mL
  bacterial growth OD600: 1.07

## CCOC(c1ccccc1)c1ccc2c(c1)CN(Cc1ccc(C#CC(C)(C)O)cc1)CCO2 (stereo unspecified)
Polymyxin B 0.75 µg/mL
  bacterial growth OD600: 0.053

## CC(=O)c1cccc(OCc2cc(C(=O)N(C)Cc3ccncn3)no2)c1
Polymyxin B 1 µg/mL
  bacterial growth OD600: 1.09

## Cc1ncc2c(c1CNC(=O)/C=C/c1cccs1)CCN(C(=O)CCc1ccc3c(c1)OCO3)C2
Polymyxin B 0.75 µg/mL
  bacterial growth OD600: 0.784

## COc1ccc(CCN2CCC(CN(C)Cc3nc(C(C)C)cs3)CC2)cc1
Polymyxin B 1 µg/mL
  bacterial growth OD600: 1.13

## COc1ccc(-c2n[nH]cc2CNC(C)c2ccccc2Cl)cc1F (stereo unspecified)
Polymyxin B 1 µg/mL
  bacterial growth OD600: 0.792

## O=C(NCC1CCC2(CCN(C(=O)c3ccc4c(c3)OCCO4)CC2)O1)C1CCCCC1 (stereo unspecified)
Polymyxin B 0.75 µg/mL
  bacterial growth OD600: 0.919
